Assay results as given in the M2OR odorant receptor database.
Only a part is listed here, and it is no random draw. The calls were merged from several studies; some rest on single wells.

Columns and labels:
Details in all cases: stereoisomer not certain
[1] = target: T1, UniProt Q8VGH1
T1 sequence (whole entry): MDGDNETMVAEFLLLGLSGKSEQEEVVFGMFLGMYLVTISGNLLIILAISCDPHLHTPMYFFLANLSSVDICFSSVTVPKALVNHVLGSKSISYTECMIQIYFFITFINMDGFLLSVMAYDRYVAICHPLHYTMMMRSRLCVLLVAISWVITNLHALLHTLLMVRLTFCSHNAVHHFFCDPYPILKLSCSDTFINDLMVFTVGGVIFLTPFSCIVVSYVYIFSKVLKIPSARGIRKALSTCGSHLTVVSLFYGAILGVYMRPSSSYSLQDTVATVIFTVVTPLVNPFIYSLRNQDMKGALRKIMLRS
Method in brief: (§1)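 Whether a receptor–molecule pair is responsive (active) rests on the original authors' judgment that its measured signal was statistically different from baseline. Pairs without that judgment are non-responsive (inactive). Sources used varied assay methods, commonly transient luciferase assays in mammalian cell lines.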

[2] = target: T2, UniProt Q8VGJ1
T2 sequence (whole entry): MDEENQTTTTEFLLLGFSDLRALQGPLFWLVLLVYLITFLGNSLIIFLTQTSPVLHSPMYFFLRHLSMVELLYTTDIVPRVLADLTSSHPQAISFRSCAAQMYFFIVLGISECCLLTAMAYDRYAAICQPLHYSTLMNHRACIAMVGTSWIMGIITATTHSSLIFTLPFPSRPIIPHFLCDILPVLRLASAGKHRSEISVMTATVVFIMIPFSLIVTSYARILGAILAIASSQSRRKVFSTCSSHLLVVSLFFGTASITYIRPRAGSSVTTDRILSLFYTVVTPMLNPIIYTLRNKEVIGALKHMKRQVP
Method in brief: as §1

[3] = target: T3, UniProt Q8VGJ3
T3 sequence (whole entry): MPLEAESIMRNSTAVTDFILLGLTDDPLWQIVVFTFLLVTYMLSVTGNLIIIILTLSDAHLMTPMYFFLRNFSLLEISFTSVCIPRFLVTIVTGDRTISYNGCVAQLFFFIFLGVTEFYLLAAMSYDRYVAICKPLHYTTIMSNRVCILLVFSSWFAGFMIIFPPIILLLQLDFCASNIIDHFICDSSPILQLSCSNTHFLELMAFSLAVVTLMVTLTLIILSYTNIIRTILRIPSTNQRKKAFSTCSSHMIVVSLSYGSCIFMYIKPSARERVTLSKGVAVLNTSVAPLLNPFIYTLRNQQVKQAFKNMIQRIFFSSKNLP
Method in brief: as §1

[4] = target: T4, UniProt Q8VGJ5
T4 sequence (whole entry): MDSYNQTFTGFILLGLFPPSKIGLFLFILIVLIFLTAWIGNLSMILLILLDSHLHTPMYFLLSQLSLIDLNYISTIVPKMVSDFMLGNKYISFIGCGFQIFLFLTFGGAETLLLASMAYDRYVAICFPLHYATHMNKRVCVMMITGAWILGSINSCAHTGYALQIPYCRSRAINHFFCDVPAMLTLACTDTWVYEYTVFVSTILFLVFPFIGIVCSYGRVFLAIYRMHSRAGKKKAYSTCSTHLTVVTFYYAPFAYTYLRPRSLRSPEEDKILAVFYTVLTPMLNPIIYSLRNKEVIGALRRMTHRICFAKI
Method in brief: as §1

[5] = target: T5, UniProt Q8VGL0
T5 sequence (whole entry): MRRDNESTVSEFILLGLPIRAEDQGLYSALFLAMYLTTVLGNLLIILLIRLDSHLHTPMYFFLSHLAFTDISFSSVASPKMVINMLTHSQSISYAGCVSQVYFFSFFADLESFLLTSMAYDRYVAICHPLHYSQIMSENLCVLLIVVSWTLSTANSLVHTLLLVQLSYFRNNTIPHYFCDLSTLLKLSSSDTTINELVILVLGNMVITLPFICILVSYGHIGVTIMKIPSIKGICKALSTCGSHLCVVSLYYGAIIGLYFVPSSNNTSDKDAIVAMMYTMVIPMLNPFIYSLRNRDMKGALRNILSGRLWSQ
Method in brief: as §1

[6] = target: T6, UniProt Q8VGL7
T6 sequence (whole entry): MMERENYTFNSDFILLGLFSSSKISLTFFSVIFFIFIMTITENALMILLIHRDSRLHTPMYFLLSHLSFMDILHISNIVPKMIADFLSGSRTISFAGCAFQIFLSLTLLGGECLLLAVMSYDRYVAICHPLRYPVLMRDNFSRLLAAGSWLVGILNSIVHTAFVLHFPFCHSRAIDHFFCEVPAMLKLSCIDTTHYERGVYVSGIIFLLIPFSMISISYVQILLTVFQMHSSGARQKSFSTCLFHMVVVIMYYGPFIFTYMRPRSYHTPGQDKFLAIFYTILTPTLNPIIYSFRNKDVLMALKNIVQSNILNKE
Method in brief: as §1

[7] = target: T7, UniProt Q8VGM2
T7 sequence (whole entry): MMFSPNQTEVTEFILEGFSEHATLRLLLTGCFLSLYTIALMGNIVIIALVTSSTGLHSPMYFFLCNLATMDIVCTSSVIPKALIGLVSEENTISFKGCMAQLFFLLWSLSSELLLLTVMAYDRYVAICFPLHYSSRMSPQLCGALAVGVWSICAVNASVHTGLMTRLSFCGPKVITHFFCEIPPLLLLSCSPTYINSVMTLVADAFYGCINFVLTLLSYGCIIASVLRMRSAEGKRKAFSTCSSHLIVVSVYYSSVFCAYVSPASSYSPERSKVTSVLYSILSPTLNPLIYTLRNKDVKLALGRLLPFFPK
Method in brief: as §1

[8] = target: T8, UniProt Q8VGP6
T8 sequence (whole entry): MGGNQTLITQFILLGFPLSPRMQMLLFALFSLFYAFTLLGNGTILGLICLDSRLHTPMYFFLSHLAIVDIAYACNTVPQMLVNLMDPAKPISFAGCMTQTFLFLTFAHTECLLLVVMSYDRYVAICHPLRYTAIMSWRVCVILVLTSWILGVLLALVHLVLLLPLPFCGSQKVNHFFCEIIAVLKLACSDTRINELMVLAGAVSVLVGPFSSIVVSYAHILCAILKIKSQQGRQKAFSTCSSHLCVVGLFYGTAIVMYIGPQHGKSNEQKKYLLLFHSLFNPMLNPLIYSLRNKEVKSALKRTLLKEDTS
Method in brief: as §1

[9] = target: T9, UniProt Q8VGQ3
T9 sequence (whole entry): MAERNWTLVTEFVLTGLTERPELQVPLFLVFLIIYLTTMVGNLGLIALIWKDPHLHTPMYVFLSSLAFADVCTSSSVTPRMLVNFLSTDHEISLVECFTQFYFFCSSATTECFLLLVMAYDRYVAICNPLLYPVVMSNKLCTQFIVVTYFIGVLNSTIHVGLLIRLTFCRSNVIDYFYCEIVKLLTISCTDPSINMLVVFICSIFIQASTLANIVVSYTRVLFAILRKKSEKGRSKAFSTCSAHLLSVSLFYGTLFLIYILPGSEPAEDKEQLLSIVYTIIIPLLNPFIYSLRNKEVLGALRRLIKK
Method in brief: as §1

[10] = target: T10, UniProt Q8VGT4
T10 sequence (whole entry): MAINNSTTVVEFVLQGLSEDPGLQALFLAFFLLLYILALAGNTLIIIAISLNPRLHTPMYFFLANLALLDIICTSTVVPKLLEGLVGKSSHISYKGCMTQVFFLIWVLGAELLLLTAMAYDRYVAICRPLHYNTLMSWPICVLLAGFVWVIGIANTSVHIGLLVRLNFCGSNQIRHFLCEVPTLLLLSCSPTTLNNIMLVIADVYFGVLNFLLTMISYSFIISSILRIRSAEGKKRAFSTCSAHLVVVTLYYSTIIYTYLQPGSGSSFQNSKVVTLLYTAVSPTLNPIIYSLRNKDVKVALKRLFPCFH
Method in brief: as §1

[11] = target: T11, UniProt Q8VGU3
T11 sequence (whole entry): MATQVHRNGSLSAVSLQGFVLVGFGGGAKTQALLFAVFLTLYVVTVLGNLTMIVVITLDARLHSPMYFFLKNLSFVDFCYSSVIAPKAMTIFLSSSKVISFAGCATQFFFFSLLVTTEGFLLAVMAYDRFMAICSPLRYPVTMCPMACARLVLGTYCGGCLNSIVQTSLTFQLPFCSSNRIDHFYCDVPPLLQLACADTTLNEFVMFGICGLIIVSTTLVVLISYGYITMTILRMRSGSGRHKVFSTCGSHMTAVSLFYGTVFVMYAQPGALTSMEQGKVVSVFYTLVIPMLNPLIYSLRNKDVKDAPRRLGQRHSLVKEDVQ
Method in brief: as §1

[12] = target: T12, UniProt Q8VGV1
T12 sequence (whole entry): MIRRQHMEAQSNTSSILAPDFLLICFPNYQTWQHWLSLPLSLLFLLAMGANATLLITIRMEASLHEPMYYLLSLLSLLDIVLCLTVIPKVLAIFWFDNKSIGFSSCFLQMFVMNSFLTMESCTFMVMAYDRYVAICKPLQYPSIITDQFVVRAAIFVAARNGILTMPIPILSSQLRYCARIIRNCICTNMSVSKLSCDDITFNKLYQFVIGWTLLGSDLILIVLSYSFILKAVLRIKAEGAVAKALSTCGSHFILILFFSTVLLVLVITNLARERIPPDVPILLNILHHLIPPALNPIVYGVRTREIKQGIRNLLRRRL
Method in brief: as §1

[13] = target: T13, UniProt Q8VGV7
T13 sequence (whole entry): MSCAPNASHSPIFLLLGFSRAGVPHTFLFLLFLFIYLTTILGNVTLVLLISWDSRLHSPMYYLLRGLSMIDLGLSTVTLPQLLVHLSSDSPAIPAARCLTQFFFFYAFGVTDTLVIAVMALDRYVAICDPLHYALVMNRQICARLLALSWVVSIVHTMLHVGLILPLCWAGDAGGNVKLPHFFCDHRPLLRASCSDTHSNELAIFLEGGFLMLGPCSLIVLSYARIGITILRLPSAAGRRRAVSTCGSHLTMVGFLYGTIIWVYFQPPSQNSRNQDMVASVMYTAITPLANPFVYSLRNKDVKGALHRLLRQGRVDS
Method in brief: as §1

[14] = target: T14, UniProt Q8VGX3
T14 sequence (whole entry): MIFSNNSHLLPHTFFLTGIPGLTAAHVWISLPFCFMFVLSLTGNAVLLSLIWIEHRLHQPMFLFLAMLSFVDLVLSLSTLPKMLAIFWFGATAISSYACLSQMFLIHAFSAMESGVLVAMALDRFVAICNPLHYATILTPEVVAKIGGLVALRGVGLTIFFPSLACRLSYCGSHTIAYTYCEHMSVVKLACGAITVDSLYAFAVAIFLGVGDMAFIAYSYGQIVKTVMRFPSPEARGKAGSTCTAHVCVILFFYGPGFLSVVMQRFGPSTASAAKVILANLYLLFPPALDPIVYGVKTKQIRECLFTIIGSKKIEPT
Method in brief: as §1

[15] = target: T15, UniProt Q8VGX5
T15 sequence (whole entry): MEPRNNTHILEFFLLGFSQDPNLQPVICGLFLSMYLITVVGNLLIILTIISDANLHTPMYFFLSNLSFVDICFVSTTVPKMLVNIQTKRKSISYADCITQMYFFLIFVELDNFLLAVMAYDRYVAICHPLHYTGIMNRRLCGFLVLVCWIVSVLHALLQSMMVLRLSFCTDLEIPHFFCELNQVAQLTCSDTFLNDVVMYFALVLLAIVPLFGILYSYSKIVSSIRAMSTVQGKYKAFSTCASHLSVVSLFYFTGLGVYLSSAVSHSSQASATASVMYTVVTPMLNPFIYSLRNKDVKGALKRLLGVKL
Method in brief: as §1

[16] = target: T16, UniProt Q8VGX8
T16 sequence (whole entry): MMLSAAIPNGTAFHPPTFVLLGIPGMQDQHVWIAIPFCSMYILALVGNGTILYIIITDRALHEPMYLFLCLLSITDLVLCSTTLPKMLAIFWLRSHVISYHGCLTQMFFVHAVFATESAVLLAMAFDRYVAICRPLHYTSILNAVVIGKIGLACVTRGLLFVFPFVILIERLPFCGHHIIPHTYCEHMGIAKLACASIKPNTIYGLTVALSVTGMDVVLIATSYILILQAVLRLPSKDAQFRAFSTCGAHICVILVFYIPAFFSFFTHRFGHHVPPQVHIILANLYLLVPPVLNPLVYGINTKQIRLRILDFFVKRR
Method in brief: as §1

[17] = target: T17, UniProt Q8VGY6
T17 sequence (whole entry): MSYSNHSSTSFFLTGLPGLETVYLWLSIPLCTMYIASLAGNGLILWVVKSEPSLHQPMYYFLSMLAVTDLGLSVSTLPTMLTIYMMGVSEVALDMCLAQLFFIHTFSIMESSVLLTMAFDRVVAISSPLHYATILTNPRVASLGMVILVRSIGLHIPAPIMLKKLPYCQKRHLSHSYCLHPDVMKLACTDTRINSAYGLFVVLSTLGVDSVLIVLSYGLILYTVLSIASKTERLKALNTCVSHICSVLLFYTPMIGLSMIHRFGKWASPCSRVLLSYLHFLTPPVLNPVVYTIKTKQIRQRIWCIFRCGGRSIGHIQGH
Method in brief: as §1

[18] = target: T18, UniProt Q8VGZ2
T18 sequence (whole entry): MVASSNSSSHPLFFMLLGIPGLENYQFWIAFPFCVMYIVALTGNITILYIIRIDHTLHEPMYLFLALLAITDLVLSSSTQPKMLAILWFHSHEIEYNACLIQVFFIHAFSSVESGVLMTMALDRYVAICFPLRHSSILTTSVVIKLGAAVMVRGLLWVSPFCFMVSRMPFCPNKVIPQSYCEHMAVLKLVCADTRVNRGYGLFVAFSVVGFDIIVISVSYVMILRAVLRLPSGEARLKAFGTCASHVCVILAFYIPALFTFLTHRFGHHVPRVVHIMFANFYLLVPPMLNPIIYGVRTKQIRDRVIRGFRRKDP
Method in brief: as §1

Measured: odorant receptor agonist call;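 note: active if original authors judged signal statistically different from baseline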

CCCCCCCC=O
inactive: all assays above
